Test results from the supplement of paper PMC7661543.
Differences between knockout arms are mostly noise.

System: BT-20
Assay: relative cell number vs DMSO control (72 h) (% of DMSO); higher = less growth inhibition (more cells)
Description: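 QMAP-Seq: a pool of 5 breast cancer cell lines (ZR-75-1, SKBR3, HCC-38, MDA-MB-231, BT-20), each carrying 12 doxycycline-inducible Cas9 sgRNA perturbations (11 knockouts plus non-targeting sgNT), was treated with compounds for 72 h at four 10-fold doses (10 nM-10 uM or 1 nM-1 uM range). Barcodes were amplified and sequenced, and cell number was interpolated from 293T spike-in standard curves. The result is expressed as % of the median of DMSO wells. Two biological replicates.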

Cc1sc2c(c1C)C(c1ccc(Cl)cc1)=N[C@@H](CC(=O)OC(C)(C)C)c1nnc(C)n1-2 [(+)-JQ1]
Settings | relative cell number
sgRNA knockout: sgATF3, 10 nM | 99.9
sgRNA knockout: sgATF3, 100 nM | 113.9
sgRNA knockout: sgATF3, 1000 nM | 98.4
sgRNA knockout: sgATF3, 10000 nM | 76.2
sgRNA knockout: sgATF4, 10 nM | 103
sgRNA knockout: sgATF4, 100 nM | 118
sgRNA knockout: sgATF4, 1000 nM | 105
sgRNA knockout: sgATF4, 10000 nM | 94.73
sgRNA knockout: sgATF6, 10 nM | 86.4
sgRNA knockout: sgATF6, 100 nM | 121
sgRNA knockout: sgATF6, 1000 nM | 97.6
sgRNA knockout: sgATF6, 10000 nM | 79.6
sgRNA knockout: sgATG7, 10 nM | 108
sgRNA knockout: sgATG7, 100 nM | 116
sgRNA knockout: sgATG7, 1000 nM | 102
sgRNA knockout: sgATG7, 10000 nM | 90.5
sgRNA knockout: sgERN1, 10 nM | 96.1
sgRNA knockout: sgERN1, 100 nM | 119
sgRNA knockout: sgERN1, 1000 nM | 102.9
sgRNA knockout: sgERN1, 10000 nM | 82.2
sgRNA knockout: sgHSF1, 10 nM | 105
sgRNA knockout: sgHSF1, 100 nM | 115
sgRNA knockout: sgHSF1, 1000 nM | 107
sgRNA knockout: sgHSF1, 10000 nM | 90.8
sgRNA knockout: sgHSF2, 10 nM | 83.6
sgRNA knockout: sgHSF2, 100 nM | 105
sgRNA knockout: sgHSF2, 1000 nM | 91.6
sgRNA knockout: sgHSF2, 10000 nM | 87.8
sgRNA knockout: sgKEAP1, 10 nM | 101
sgRNA knockout: sgKEAP1, 100 nM | 118
sgRNA knockout: sgKEAP1, 1000 nM | 104
sgRNA knockout: sgKEAP1, 10000 nM | 88.4
sgRNA knockout: sgNFE2L2, 10 nM | 92.7
sgRNA knockout: sgNFE2L2, 100 nM | 123
sgRNA knockout: sgNFE2L2, 1000 nM | 97.4
sgRNA knockout: sgNFE2L2, 10000 nM | 76.2
sgRNA knockout: sgSLC35F2, 10 nM | 99.3
sgRNA knockout: sgSLC35F2, 100 nM | 124
sgRNA knockout: sgSLC35F2, 1000 nM | 104
sgRNA knockout: sgSLC35F2, 10000 nM | 74
sgRNA knockout: sgXBP1, 10 nM | 106
sgRNA knockout: sgXBP1, 100 nM | 111
sgRNA knockout: sgXBP1, 1000 nM | 102
sgRNA knockout: sgXBP1, 10000 nM | 86.1

CN(C)CC[C@H](CSc1ccccc1)Nc1ccc(S(=O)(=O)NC(=O)c2ccc(N3CCN(Cc4ccccc4-c4ccc(Cl)cc4)CC3)cc2)cc1[N+](=O)[O-] [ABT737]
Settings | relative cell number
sgRNA knockout: sgATF3, 10 nM | 112
sgRNA knockout: sgATF3, 100 nM | 95.8
sgRNA knockout: sgATF3, 1000 nM | 86.6
sgRNA knockout: sgATF3, 10000 nM | 85.2
sgRNA knockout: sgATF4, 10 nM | 91.4
sgRNA knockout: sgATF4, 100 nM | 96.8
sgRNA knockout: sgATF4, 1000 nM | 99.3
sgRNA knockout: sgATF4, 10000 nM | 80.9
sgRNA knockout: sgATF6, 10 nM | 99
sgRNA knockout: sgATF6, 100 nM | 89.7
sgRNA knockout: sgATF6, 1000 nM | 91.8
sgRNA knockout: sgATF6, 10000 nM | 77.6
sgRNA knockout: sgATG7, 10 nM | 109
sgRNA knockout: sgATG7, 100 nM | 90.2
sgRNA knockout: sgATG7, 1000 nM | 99.28
sgRNA knockout: sgATG7, 10000 nM | 71.9
sgRNA knockout: sgERN1, 10 nM | 91.8
sgRNA knockout: sgERN1, 100 nM | 97.3
sgRNA knockout: sgERN1, 1000 nM | 87.55
sgRNA knockout: sgERN1, 10000 nM | 78.6
sgRNA knockout: sgHSF1, 10 nM | 85.6
sgRNA knockout: sgHSF1, 100 nM | 81.5
sgRNA knockout: sgHSF1, 1000 nM | 96.01
sgRNA knockout: sgHSF1, 10000 nM | 87.7
sgRNA knockout: sgHSF2, 10 nM | 96.3
sgRNA knockout: sgHSF2, 100 nM | 102.8
sgRNA knockout: sgHSF2, 1000 nM | 93.2
sgRNA knockout: sgHSF2, 10000 nM | 85.4
sgRNA knockout: sgKEAP1, 10 nM | 90.2
sgRNA knockout: sgKEAP1, 100 nM | 86.9
sgRNA knockout: sgKEAP1, 1000 nM | 95.1
sgRNA knockout: sgKEAP1, 10000 nM | 70.1
sgRNA knockout: sgNFE2L2, 10 nM | 103
sgRNA knockout: sgNFE2L2, 100 nM | 106
sgRNA knockout: sgNFE2L2, 1000 nM | 94.6
sgRNA knockout: sgNFE2L2, 10000 nM | 76.9
sgRNA knockout: sgSLC35F2, 10 nM | 90.1
sgRNA knockout: sgSLC35F2, 100 nM | 91.9
sgRNA knockout: sgSLC35F2, 1000 nM | 87.4
sgRNA knockout: sgSLC35F2, 10000 nM | 84.4
sgRNA knockout: sgXBP1, 10 nM | 87.3
sgRNA knockout: sgXBP1, 100 nM | 96.1
sgRNA knockout: sgXBP1, 1000 nM | 101
sgRNA knockout: sgXBP1, 10000 nM | 68.9

Clc1ccc(C2(c3ccc(-c4cn[nH]c4)cc3)CCNCC2)cc1 [AT7867]
Settings | relative cell number
sgRNA knockout: sgATF3, 10 nM | 91.5
sgRNA knockout: sgATF3, 100 nM | 111
sgRNA knockout: sgATF3, 1000 nM | 77.6
sgRNA knockout: sgATF3, 10000 nM | 17.111
sgRNA knockout: sgATF4, 10 nM | 72.7
sgRNA knockout: sgATF4, 100 nM | 129
sgRNA knockout: sgATF4, 1000 nM | 77.3
sgRNA knockout: sgATF4, 10000 nM | 26.1
sgRNA knockout: sgATF6, 10 nM | 92.6
sgRNA knockout: sgATF6, 100 nM | 95
sgRNA knockout: sgATF6, 1000 nM | 72.6
sgRNA knockout: sgATF6, 10000 nM | 21.1
sgRNA knockout: sgATG7, 10 nM | 98.9
sgRNA knockout: sgATG7, 100 nM | 109
sgRNA knockout: sgATG7, 1000 nM | 62.5
sgRNA knockout: sgATG7, 10000 nM | 26.3
sgRNA knockout: sgERN1, 10 nM | 99
sgRNA knockout: sgERN1, 100 nM | 113
sgRNA knockout: sgERN1, 1000 nM | 85.5
sgRNA knockout: sgERN1, 10000 nM | 23.4
sgRNA knockout: sgHSF1, 10 nM | 92.6
sgRNA knockout: sgHSF1, 100 nM | 105
sgRNA knockout: sgHSF1, 1000 nM | 84.3
sgRNA knockout: sgHSF1, 10000 nM | 22.5
sgRNA knockout: sgHSF2, 10 nM | 89.62
sgRNA knockout: sgHSF2, 100 nM | 97.8
sgRNA knockout: sgHSF2, 1000 nM | 84.5
sgRNA knockout: sgHSF2, 10000 nM | 27
sgRNA knockout: sgKEAP1, 10 nM | 82.6
sgRNA knockout: sgKEAP1, 100 nM | 99.7
sgRNA knockout: sgKEAP1, 1000 nM | 93.9
sgRNA knockout: sgKEAP1, 10000 nM | 24.5
sgRNA knockout: sgNFE2L2, 10 nM | 97.1
sgRNA knockout: sgNFE2L2, 100 nM | 123
sgRNA knockout: sgNFE2L2, 1000 nM | 72.6
sgRNA knockout: sgNFE2L2, 10000 nM | 25.13
sgRNA knockout: sgSLC35F2, 10 nM | 108
sgRNA knockout: sgSLC35F2, 100 nM | 99
sgRNA knockout: sgSLC35F2, 1000 nM | 82.8
sgRNA knockout: sgSLC35F2, 10000 nM | 27.9
sgRNA knockout: sgXBP1, 10 nM | 98.6
sgRNA knockout: sgXBP1, 100 nM | 125
sgRNA knockout: sgXBP1, 1000 nM | 90.4
sgRNA knockout: sgXBP1, 10000 nM | 26.3
